For at least one compound, name, drawing or mass did not settle the structure. Marks after values point to notes of the source that are not given here.
Legend:
Gelatinase A = target: T1, Gelatinase A (Homo sapiens, UniProt P08253); test: Zymography with densitometry of C8161 conditioned medium, gelatinase A; type: cell-based; conditions: 50 μg/mL, 24 hr
T1 construct: endogenous in cells; host or cells: C8161
T1 sequence (P08253 110-660): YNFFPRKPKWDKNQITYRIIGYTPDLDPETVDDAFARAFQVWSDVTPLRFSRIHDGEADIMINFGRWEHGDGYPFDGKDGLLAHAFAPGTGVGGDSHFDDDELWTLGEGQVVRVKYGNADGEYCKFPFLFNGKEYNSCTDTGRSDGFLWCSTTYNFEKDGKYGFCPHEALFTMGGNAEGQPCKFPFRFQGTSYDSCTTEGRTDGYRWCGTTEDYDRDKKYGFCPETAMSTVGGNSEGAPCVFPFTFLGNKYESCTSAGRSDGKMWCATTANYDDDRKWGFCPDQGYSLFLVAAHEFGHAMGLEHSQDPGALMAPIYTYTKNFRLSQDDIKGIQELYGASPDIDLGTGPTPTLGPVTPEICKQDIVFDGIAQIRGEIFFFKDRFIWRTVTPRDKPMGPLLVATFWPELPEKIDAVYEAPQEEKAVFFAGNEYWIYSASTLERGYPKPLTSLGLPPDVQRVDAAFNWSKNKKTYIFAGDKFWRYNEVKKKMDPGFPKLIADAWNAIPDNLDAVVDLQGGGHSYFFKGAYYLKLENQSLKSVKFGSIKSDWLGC
Experimental: (§1) Six hundred thousand (6×10^5) C8161 cells were seeded per well in a 12-well dish coated with a laminin/collagen IV/gelatin matrix in DMEM plus Mito+ and 0.1% gentamicin sulfate. After approximately 1 hr incubation to allow the cells to attach, 50 μg/mL of either doxycycline or one of the other CMTs was added per well and the dish then placed in a 37° C. humidified 5% CO2 incubator. After 24 hr, the supernatants were removed and centrifuged to remove any cells or debris. One volume of Laemmli sample buffer minus reductant was added to two volumes of the medium, and this sample electrophoresed without prior heating or boiling on a 10% SDS-PAGE containing 0.1% gelatin (samples normalized based on the same number of cells per volume of medium per time of incubation). After electrophoresis, the gels were washed with gentle shaking at room temperature for 30 min in 50 mM Tris-HCl (pH 7.5) plus 2.5% TRITON® X100 plus 50 μg/mL of the corresponding CMT used in the original treatment. […] An integrated density was determined for each of the cleared zones of proteolysis using the software ImagePC8α (freely available from the National Institutes of Health), and the corresponding changes in gelatinolytic activities reported compared to the control samples normalized to a value of 1.0.

By UniProt entry, the sequences of proteins in these tests, tags left out. Residues count along the entry.
UniProt P14780, 94-707: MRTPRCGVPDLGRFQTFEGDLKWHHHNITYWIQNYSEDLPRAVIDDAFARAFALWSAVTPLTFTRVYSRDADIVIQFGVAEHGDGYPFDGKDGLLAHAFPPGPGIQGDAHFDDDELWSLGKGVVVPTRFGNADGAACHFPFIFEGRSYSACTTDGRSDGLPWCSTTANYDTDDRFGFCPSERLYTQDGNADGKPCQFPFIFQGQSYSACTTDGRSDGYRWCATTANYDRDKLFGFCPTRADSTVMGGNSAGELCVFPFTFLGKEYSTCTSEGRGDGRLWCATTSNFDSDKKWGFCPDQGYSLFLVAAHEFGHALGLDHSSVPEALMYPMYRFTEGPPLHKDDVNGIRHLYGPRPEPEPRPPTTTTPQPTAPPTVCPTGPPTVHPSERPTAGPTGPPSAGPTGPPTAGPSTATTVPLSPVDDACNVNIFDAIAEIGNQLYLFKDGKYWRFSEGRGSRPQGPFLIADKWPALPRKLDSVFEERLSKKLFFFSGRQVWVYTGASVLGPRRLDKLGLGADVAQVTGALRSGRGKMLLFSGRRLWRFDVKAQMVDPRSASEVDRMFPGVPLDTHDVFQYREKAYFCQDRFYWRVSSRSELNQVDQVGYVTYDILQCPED

[1] = tested on: in vitro activated gelatinases (MMPs) from MAT LyLu and TSU PR1 conditioned medium; test: 3H-gelatin gelatinase activity assay on processed conditioned medium of prostate cancer cells; type: biochemical
Experimental: The effects of CMT-3 and doxycycline on gelatinase activity or expression by prostate cancer cells were tested. First, we tested the capacity of CMT-3 and doxycycline to inhibit MMP secretion into culture medium. Gelatinase activity was measured using a method adapted from the method of Dean and Woessner (1985). Conditioned culture medium was collected from MAT LyLu and TSU PR1 cells treated with CMT-3 or doxycycline for two days. The serum-free culture medium comprised RPMI 1640 basal medium containing insulin (5 μg/mL), transferrin (5 μg/mL), selenious acid ([…]), and gentamicin (2 μg/mL). […] (Dean et al. 1987; Woessner 1991.) The dialyzed medium was assayed for gelatinase activity following activation of latent MMPs with 1 mM p-aminophenyl mercuric acetate (APMA) for 30 min at 37° C. The assay mix was 25 μg ^3H-gelatin (prepared from heat-denatured ^3H-acetylated acid-soluble collagen), 0.1 mL of processed culture-conditioned medium, 1 mM phenylmethyl sulfonyl fluoride (PMSF) in a total volume of 0.5 mL of an assay buffer (20 mM Tris-HCl, pH 7.4, 30 mM NaCl, 0.005% Brij35, 10 mM CaCl2, 2 μM ZnSO4, and 0.02% NaN3). In some cases, 1 mM CaCl2 (instead of 10 mM) was used. Blanks were obtained by adding 1 mM 1,10-phenanthroline. Doxycycline or CMT-3 were added to the assay mixture following activation of the latent MMPs and just before adding the substrate ^3H-gelatin.
(§2) MMP activity in the culture media was examined at 1 mM and 10 mM CaCl2, with no change in [Zn^2+] in the assay buffer. We employed 1 mM CaCl2, as this concentration is closer to physiological concentration, and 10 mM CaCl2, as it is reported to be the optimum concentration in in vitro assays (Woessner 1991). As is shown in Table 2, both CMT-3 and doxycycline inhibited in vitro activated gelatinases.

[2] = tested on: C8161 human melanoma cells; test: In vitro invasion assay (MICS), laminin/collagen IV/gelatin matrix-coated filter; type: cell-based; conditions: 3, 20 and 50 μg/mL
Experimental: The in vitro invasive potentials of the control (DMSO only) and chemically-modified tetracycline treated cells were measured using a modified Boyden chamber as previously described (Membrane Invasion Culture System, MICS). An intervening barrier consisting of a polycarbonate filter containing 10 μm pores (Osmonics, Livermore, Calif.) coated with a defined matrix of human laminin/collagen IV/gelatin (Sigma, St. Louis, Mo.) was used for these studies. […] Doxycycline or individual CMTs were then added to different wells of the chamber at 3, 20 or 50 μg/mL 2 hr post-seeding and daily during the assay. After 48 hr, the cells were removed from the lower wells and the number of invasive cells was determined and compared to the original number of cells seeded into the upper wells. Where appropriate, data were corrected for proliferation during the period of the in vitro assay.

C8161 cells = test: C8161 cell proliferation (doubling time); type: cell-based, human; conditions: 50 μg/mL, versus DMSO
Experimental: Cell Culture and Maintenance: C8161 cells, a human melanoma cell line, were maintained in Dulbecco's modified Eagle's medium (DMEM; […] These cells were routinely screened for Mycoplasma contamination using the GenProbe Rapid Detection System (Fisher Scientific; Chicago, Ill.). Chemically Modified Tetracyclines: Fresh stock solutions of the chemically modified tetracycline compounds (2 mg/mL) were prepared for each experiment by hydrating in 2% dimethyl sulfoxide (DMSO)/water pH 10, then adjusting to pH 7.4 using 1.0 M HCl. […] Sigma Chem. Co.; control) or 50 μg/mL of doxycycline or the other CMTs (three wells on each plate per compound). […] The doubling time for C8161 cells in the presence of each compound was then determined and compared to the DMSO treated cells (control).

Dunning MAT LyLu tumor [3] = test: MAT LyLu tumor incidence, growth and metastasis, predosing 7 days before implant; type: in vivo, Copenhagen rats; conditions: 40 mg/kg
Experimental: (§3) Tumor Generation and Treatment: Dunning MAT LyLu cells were harvested from culture flasks, and a 0.5 mL suspension containing from 2×10^5 to 2×10^6 cells/mL was inoculated into the dorsal flank of adult Copenhagen rats (Harlan Sprague Dawley, Indianapolis, Ind.). The rats weighed 250-300 g, and were 90-100 days old. Tumors were detected by palpating the skin around the site of injection starting 3 days following implant of the tumor cells (Lokeshwar et al. 1995a).
Drug Treatment In Vivo: Doxycycline and CMT-3 were dissolved in a 2% aqueous solution of a soluble form of carboxymethyl cellulose (Sigma Cat. No. C-5678), and a fresh solution was made up daily. […] Tumor growth was recorded three times a week, and rats were weighed weekly. The effect of various treatments on tumor growth was monitored over time using calipers, and the volume approximated to an ellipsoid (i.e., volume=length×width×height×0.5236) (Lokeshwar et al. 1993b). Tumor growth rate was determined by regression analysis of tumor volume versus time, for each tumor-bearing rat. […] Macroscopic tumor foci on the lungs were counted under a dissecting microscope. […]
Tumor growth rates were calculated from thrice-weekly measurement of tumor volume with linear regression analysis of log-transformed volume measurements (Dudak et al. 1996).

Gelatinase B = target: T2, Gelatinase B (Homo sapiens, UniProt P14780); test: Zymography with densitometry of C8161 conditioned medium, gelatinase B; type: cell-based; conditions: 50 μg/mL, 24 hr
T2 construct: endogenous in cells; host or cells: C8161
Experimental: as §1

Dunning MAT LyLu tumor [4] = test: MAT LyLu tumor growth and lung metastasis, gavage from day of implant; type: in vivo, Copenhagen rats; conditions: 20 mg/kg or 40 mg/kg
Experimental: as §3
Drug Treatment In Vivo: Doxycycline and CMT-3 were dissolved in a 2% aqueous solution of a soluble form of carboxymethyl cellulose (Sigma Cat. No. C-5678), and a fresh solution was made up daily. Rats were gavaged daily with 1 mL of the drug solution (concentrations specified below), or the vehicle (2% carboxymethyl cellulose). Tumor growth was recorded three times a week, and rats were weighed weekly. The effect of various treatments on tumor growth was monitored over time using calipers, and the volume approximated to an ellipsoid (i.e., volume=length×width×height×0.5236) (Lokeshwar et al. 1993b). Tumor growth rate was determined by regression analysis of tumor volume versus time, for each tumor-bearing rat. […] Macroscopic tumor foci on the lungs were counted under a dissecting microscope. […]

MAT LyLu cells = test: Soluble nucleosome ELISA (programmed cell death), MAT LyLu; type: cell-based, rat
Experimental: An investigation of the cytotoxicity of chemically modified tetracycline compounds for cancer cells was undertaken to determine involvement of programmed cell death (apoptosis) (see Duke et al. 1986). MAT LyLu cells were incubated with various concentration of CMT-3 and doxycycline. Conditioned media were assayed for soluble nucleosomes, resulting from internucleosomal DNA strand breaks, using the Cell Death Detection ELISA Plus kit from Boehringer Mannheim GmbH (Catalog No. 1774425) according to the manufacturer's instructions. In the dosage-dependence trials, cells were incubated with the tetracycline compounds for 48 hr, and then media were collected. In the time trials, the cells were exposed to the tetracycline compounds for specific periods of time from 0 to 48 hr, and if appropriate were maintained in fresh media until 48 hr from the start of the experiment at which time media were collected.

gelatinase B (MMP-9) = test: Gelatin zymography of conditioned media of TSU PR1 and MAT LyLu cells, MMP-9; type: cell-based; conditions: 48 hours, serum-free medium
Experimental: Next we examined whether CMT-3 and doxycycline differentially affect the production of two major classes of gelatinases: gelatinase A (MMP-2) and gelatinase B (MMP-9). Confluent cultures of TSU PR1 and MAT LyLu cells were incubated with various concentrations of doxycycline and CMT-3 for 48 hours in serum-free medium. The conditioned media were then analyzed for MMPs by zymography as described below.
Conditioned media were collected from the cultures that had been treated with doxycycline or CMT-3 for 2 days. Media were then incubated with SDS-gel electrophoresis sample buffer for 30 min at room temperature, and then analyzed by gel electrophoresis on SDS-polyacrylamide gel (8%) containing gelatin (1 mg/mL). Following electrophoresis, the gels were washed twice with 0.25% TRITON® X100 for 30 min each, and incubated for 18 hr at 37° C. in an MMP digestion buffer comprising 20 mM Tris-HCl, pH 7.4, containing 30 mM NaCl, 1 mM PMSF, 10 mM CaCl2, 2 μM ZnSO4, 0.005% Brij35, and 0.02 NaN3 (Lokeshwar 1993a). After incubation, the gels were briefly rinsed in distilled water and stained with 0.25% Coomassie brilliant blue R250 prepared in 40% isopropanol solution for 1 hr. Gels were destained with 7% acetic acid. the locations of MMPs in the gels were visible as clear areas on a blue background, indicative of digested gelatin.

[5] = tested on: activation of MMPs by p-aminophenyl mercuric acetate; test: Inhibition of APMA activation of MMPs in processed conditioned medium; type: biochemical
Experimental: In addition, the ability of doxycycline or CMT-3 to inhibit APMA activation of MMPs was tested. Processed culture-conditioned medium was incubated with the drugs for 1 hr before adding 1 mM APMA, and the incubation was continued thereafter for 2 hr. ^3H-gelatin was then added and the assy was continued for 4 hr. All assays were performed in duplicate tubes, and repeated at least twice.
as §2

C[C@H]1c2cccc(O)c2C(=O)C2=C(O)[C@]3(O)C(=O)C(C(N)=O)=C(O)[C@@H](N(C)C)[C@@H]3[C@@H](O)[C@@H]21 [Doxycycline, 6α-deoxy-5-hydroxy-tetracycline, reference compound] was tested, and the “Gelatinase A, integrated density normalized to control 1.00” value (Gelatinase A) was 0.26, the “Percent Inhibition (gelatinase activity)” value ([1]; 0.50 μM drug, 1 mM CaCl2) was 54.8 ± 0.6^a % and the “Percent Inhibition (gelatinase activity)” value ([1]; 1.0 μM drug, 1 mM CaCl2) was 77.4%. The “Percent Inhibition (gelatinase activity)” value ([1]; 1.0 μM drug, 10 mM CaCl2) was 0.0%, the “Percent Inhibition (gelatinase activity)” value ([1]; 5.0 μM drug, 10 mM CaCl2) was 64.3 ± 19.5% and the “Percent Inhibition (gelatinase activity)” value ([1]; 10 μM drug, 1 mM CaCl2) was 91.2 ± 3.3^ %. The “Percent Inhibition (gelatinase activity)” value ([1]; 10 μM drug, 10 mM CaCl2) was 75.5 ± 3.3%, the “Percent Inhibition (gelatinase activity)” value ([1]; 20 μM drug, 10 mM CaCl2) was 85.1 ± 3.5% and the “Percent Inhibition (gelatinase activity)” value ([1]; 50 μM drug, 1 mM CaCl2) was 100%. The “Percent Inhibition (gelatinase activity)” value ([1]; 50 μM drug, 10 mM CaCl2) was 93.2 ± 2.7%, the “Percent Inhibition (gelatinase activity)” value ([1]; 100 μM drug, 10 mM CaCl2) was 91.2 ± 2.6% and the IC50 ([1]; 10 mM CaCl2, read-out: 50% inhibition dose (IC50), activated gelatinases) was 5 µM. For the same compound, the “Type of Inhibition” value [2] was “dose dependent”, the “increase of doubling time” value (C8161 cells) was “did not affect the doubling time” and the “tumor remission (inhibition of tumor incidence)” value (Dunning MAT LyLu tumor [3]) was “did not result in tumor remission”. The “Gelatinase B, integrated density normalized to control 1.00” value (Gelatinase B) was 0.40, the “primary tumor growth versus control group (regression analysis of tumor volumes)” value (Dunning MAT LyLu tumor [4]) was “no significant difference” and the “programmed cell death response after brief exposure” value (MAT LyLu cells; 4 hr at 5 μg/mL or 10 μg/mL) was “no such response was observed”. For the same compound, the “soluble nucleosomes / programmed cell death induction” value (MAT LyLu cells; dosage-dependence, 48 hr) was “insignificant”, the “MMP-9 levels in conditioned media (zymography)” value (gelatinase B (MMP-9)) was “did not decrease significantly” and the “IC50, inhibition of activation of MMPs by APMA” value ([5]; 10 mM CaCl2) was 2.5 µg/mL. It also gave an IC50 ([5]; 10 mM CaCl2, value in brackets) of 5 µM.

Source: patent US6429204B1, “Method of inhibiting cancer growth” (University of Miami, priority 1997, dated 2002)
